Assays:
[1] = Fluorescent intensity measurement with fluorescence spectrometer, 365 nm stimulation, solid phase; format: physicochemical; parameters: key to Fluorescent Intensity (UV light 365 nm stimulated) Solid Phase: −: not measured; +: very low; ++: low; +++: medium; ++++: high; +++++: very high
Procedure: The obtained quinazolinone compound was irradiated with near-UV light in the wavelength of 365 nm, and the intensity of discharged fluorescence was measured. The fluorescent intensity was measured using a fluorescence spectrometer (DARSA-5000, PSI Co., Ltd.), under the condition of 365 nm stimulation wavelength, cumulative average of five-time measurements, and 1024×128 CCD sensor shape. In addition, measurement of residual fluorescent intensity after artificial light exposure was repeated identically according to ASTM G 154-06 Cycle 1 standard.

[2] = Fluorescence discharged in the range 400~700 nm on 365 nm near-ultraviolet irradiation; format: physicochemical; parameters: key to Fluorescence Intensity: −: not measured; +: very low; ++: low; +++: medium; ++++: high; +++++: very high; conditions: 365 nm irradiation; for Fluorescence Intensity: emission 400~700 nm
Procedure: Further, the melting point was measured using the melting point measuring instrument (M5000, KRÜSS GmbH), by assuming that the phase change is at the point where the change in transmissivity reaches 20%. Solubility in organic solvents was measured with respect to eight product items.

Row | Structure (SMILES) | Fluorescent Color Solid Phase [1] | Fluorescent Intensity (UV light 365 nm stimulated) Solid Phase [1] | Emmax (nm) [2] | Fluorescence Intensity [2]
1 | O=c1[nH]c(-c2cc(Cl)ccc2O)nc2ccccc12 [Embodiment 4, 2-(5-chloro-2-hydroxyphenyl)quinazoline-4(3H)-on] | Green | ++++ |  | 
2 | O=c1[nH]c(-c2ccc(Cl)cc2O)nc2ccccc12 [Embodiment 10, 2-(4-chloro-2-hydroxyphenyl)quinazoline-4(3H)-on] | Turquoise | ++++ |  | 
3 | O=c1[nH]c(-c2c(O)cccc2Cl)nc2ccccc12 [Embodiment 16, 2-(2-chloro-6-hyrdoxyphenyl)quinazoline-4(3H)-on] | Green | ++++ |  | 
4 | COc1ccc(-c2nc3ccccc3c(=O)[nH]2)c(O)c1 [Embodiment 7, 2-(2-hydroxy-4-methoxyphenyl)quinazoline-4-(3H)-on] | Turquoise | ++ |  | 
5 | O=c1[nH]c(-c2ccc(Cl)cc2O)nc2ccc(Cl)cc12 [Embodiment 11, 6-chloro-2-(4-chloro-2-hydroxyphenyl)quinazoline-4(3H)-on] | Turquoise | ++++ | 490 nm | ++++
6 | O=c1[nH]c(-c2cc(Cl)ccc2O)nc2ccc(Cl)cc12 [Embodiment 5, 6-choloro-2-(5-chloro-2-hydroxyphenyl)quinazoline-4(3H)-on] | Yellow | ++ |  | 
7 | O=c1[nH]c(-c2cc(Cl)ccc2O)nc2cc(Cl)ccc12 [Embodiment 6, 7-chloro-2-(5-chloro-2-hydroxyphenyl)quinazoline-4(3H)-on] | Yellow-green | +++ | 527 nm | +++
8 | O=c1[nH]c(-c2ccc(Cl)cc2O)nc2cc(Cl)ccc12 [Embodiment 12, 7-chloro-2-(4-chloro-2-hydroxyphenyl)quinazoline-4(3H)-on] | Turquoise | +++ |  | 
9 | COc1ccc(-c2nc3ccc(Cl)cc3c(=O)[nH]2)c(O)c1 [Embodiment 8, 6-chloro-2-(2-hydroxy-4-methoxyphenyl)quinazoline-4(3H)-on] | Turquoise | ++ |  | 
10 | O=c1[nH]c(-c2cccc(Cl)c2O)nc2ccccc12 [Embodiment 17, 2-(3-choloro-2-hydroxyphenyl)quinazoline-4(3H)-on] | Green | ++++ |  | 
11 | O=c1[nH]c(-c2cc(F)ccc2O)nc2ccccc12 [Embodiment 13, 2-(5-fluoro-2-hyroxyphenyl)quinazoline-4(3H)-on] | Green | +++++ |  | 
